# These are yes or no findings as the source states them, for the method shown. Binding seen in cells or lysates may run through a third protein. A result given as binding can be weak or reduced; the word gives no strength. Tags and fused reporters may be left off the sequences shown.
# Molecular target: T1, FLAG-tagged full-length PF3D7_0811400 (P. falciparum) (UniProt C0H4U0)
# T1 sequence: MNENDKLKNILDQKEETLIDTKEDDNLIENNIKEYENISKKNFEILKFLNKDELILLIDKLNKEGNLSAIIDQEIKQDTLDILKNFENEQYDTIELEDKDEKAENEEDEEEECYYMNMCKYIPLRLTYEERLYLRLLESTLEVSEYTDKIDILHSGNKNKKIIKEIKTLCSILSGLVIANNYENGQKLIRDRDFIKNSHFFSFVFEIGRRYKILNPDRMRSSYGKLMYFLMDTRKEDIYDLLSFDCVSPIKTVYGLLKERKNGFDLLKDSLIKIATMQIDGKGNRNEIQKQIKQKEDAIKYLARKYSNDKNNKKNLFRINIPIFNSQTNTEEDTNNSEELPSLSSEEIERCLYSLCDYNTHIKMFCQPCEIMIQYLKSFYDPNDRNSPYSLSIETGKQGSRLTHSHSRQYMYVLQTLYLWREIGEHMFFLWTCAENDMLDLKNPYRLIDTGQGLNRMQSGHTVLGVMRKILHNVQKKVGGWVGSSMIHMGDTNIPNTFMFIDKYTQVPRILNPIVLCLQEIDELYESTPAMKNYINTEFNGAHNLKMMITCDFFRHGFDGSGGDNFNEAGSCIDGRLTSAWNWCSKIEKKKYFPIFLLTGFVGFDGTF
# Assay: co-IP; Myc-PfRbx1 co-expressed with FLAG-tagged proteins in HEK293T cells; anti-FLAG beads; anti-myc and anti-FLAG immunoblot
substance,measurement,value
Myc-tagged PfRbx1 (P. falciparum),binding,binds

# — PMC12007708
